Experimental data from patent publication US20150232572A1.
No constants are given. Whether binding was seen depends on the method and setting. Some binding calls cover weakened binding; strength is not graded here.

Tests used:
[1] = molecular target: T1, recombinant catalytic domain of MT4-MMP (MT4-CAT) (Homo sapiens (Human)) (UniProt Q9ULZ9); test: ELISA, 0-3 µg MT4-CAT immobilized per well, anti-myc detection, A450
T1 sequence: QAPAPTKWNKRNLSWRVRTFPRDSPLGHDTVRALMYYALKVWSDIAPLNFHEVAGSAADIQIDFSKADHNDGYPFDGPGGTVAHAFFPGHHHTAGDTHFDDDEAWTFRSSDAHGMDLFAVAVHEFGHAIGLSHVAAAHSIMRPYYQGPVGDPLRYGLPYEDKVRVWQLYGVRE

[2] = molecular target: T1, recombinant catalytic domain of MT4-MMP (MT4-CAT) (Homo sapiens (Human)); test: ELISA on immobilized MT4-CAT (FIG. 14 B)
[3] = molecular target: recombinant wild-type MT4-MMP (Homo sapiens (Human)) (UniProt Q9ULZ9); test: ELISA, 3 µg recombinant protein
[4] = molecular target: recombinant MT4-MMP inactive mutated form (E249A) (Homo sapiens (Human)) (UniProt Q9ULZ9); test: ELISA, 3 µg recombinant protein
[5] = molecular target: recombinant wild-type MT4-MMP (Homo sapiens (Human)) (UniProt Q9ULZ9); test: phage display selection and screening; assay not specified
[6] = molecular target: recombinant wild-type MT4-MMP (Homo sapiens (Human)) (UniProt Q9ULZ9); test: ELISA (FIG. 14 C)
[7] = molecular target: recombinant MT4-MMP inactive mutated form (E249A) (Homo sapiens (Human)) (UniProt Q9ULZ9); test: ELISA (FIG. 14 C)
[8] = molecular target: T1, recombinant catalytic domain of MT4-MMP (MT4-CAT) (Homo sapiens (Human)); test: ELISA on different concentrations of recombinant MT4-MMP coated in 96 well plates (MT4-CAT per paragraph 200)
[9] = molecular target: recombinant wild-type MT4-MMP (Homo sapiens (Human)) (UniProt Q9ULZ9); test: Western blot, scFv detected by anti-myc
[10] = molecular target: recombinant MT4-MMP inactive mutated form (E249A) (Homo sapiens (Human)) (UniProt Q9ULZ9); test: Western blot, scFv detected by anti-myc

- binding [1]: binds
- binding [2]: binds
- binding [3]: binds
- binding [4]: binds
- binding [5]: binds
- binding [6]: binds
- binding [7]: binds
- binding [8]: binds
- binding [9]: binds
- binding [10]: binds
B1: K4H7 scFv antibody (scFv)
scFv: QVQLVQSGGGLVKPGRSLRLSCTASGFTFGDYAMSWFRQAPGKGLEWVGFIRSKAYGGTTEYAASVKGRFTISRDDSKSIAYLQMNSLKTEDTAVYYCTRGSSGWFLNWFDPWGQGTLVTVSSLEGGGGSGGGGSGGGGSELETTLTQSPATLSLSPGERATLSCRASQSISSSYLAWYQHKPGQAPRLLIYGASRRATGIPDRFSGSGSGTDFSLTISRLEPEDFAVYYCLHYGSSKWTFGQGTKVEIKR
